Results are given in words; binding and its absence hold for the method and conditions named. Binding seen in cells or lysates may run through a third protein. A yes stands for co-enrichment or nearness to the bait. Other partners may have been found.
Experiments:
[1] = target: G3BP1 (human (endogenous in U2OS)) (UniProt Q13283); assay: affinity purification with mass spectrometry; SG fraction (S850, differential centrifugation) of wild-type U2OS cells over heat shock at 43 °C (0, 10, 20, 30, 60, 120, 180 min) and recovery at 37 °C (5, 10 min); G3BP1 or CAPRIN1 antibody cross-linked to protein A/G magnetic beads, 3 h at 4 °C; washes with SG Lysis Buffer, + 2 M urea, and 300 mM KOAc; TMT-labelled LC-MS/MS, three replicates; dynamic proteins had to change >1.2-fold in both datasets
[2] = target: T1, CAPRIN1 (human (endogenous in U2OS)) (UniProt Q14444); assay: as above
T1 sequence: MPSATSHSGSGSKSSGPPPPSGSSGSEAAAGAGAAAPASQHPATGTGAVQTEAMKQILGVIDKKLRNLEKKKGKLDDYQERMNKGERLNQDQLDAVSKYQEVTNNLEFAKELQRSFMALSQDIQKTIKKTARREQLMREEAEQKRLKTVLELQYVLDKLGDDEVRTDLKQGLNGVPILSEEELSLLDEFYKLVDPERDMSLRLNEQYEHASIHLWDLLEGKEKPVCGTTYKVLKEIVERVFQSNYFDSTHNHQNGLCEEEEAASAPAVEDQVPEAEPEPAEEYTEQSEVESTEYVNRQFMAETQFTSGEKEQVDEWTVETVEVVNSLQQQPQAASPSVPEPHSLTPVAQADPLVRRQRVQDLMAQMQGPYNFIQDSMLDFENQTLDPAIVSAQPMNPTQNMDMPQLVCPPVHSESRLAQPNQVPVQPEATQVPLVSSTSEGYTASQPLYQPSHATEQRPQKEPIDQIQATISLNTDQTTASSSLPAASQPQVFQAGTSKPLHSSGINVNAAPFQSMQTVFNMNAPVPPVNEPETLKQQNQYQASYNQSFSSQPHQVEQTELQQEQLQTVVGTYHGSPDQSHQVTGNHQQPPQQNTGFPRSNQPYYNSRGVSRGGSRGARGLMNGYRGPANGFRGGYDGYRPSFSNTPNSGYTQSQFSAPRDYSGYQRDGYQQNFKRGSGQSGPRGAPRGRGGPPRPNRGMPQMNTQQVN

The chains behind the UniProt entries cited, without tags or fusion partners.
UniProt Q13283: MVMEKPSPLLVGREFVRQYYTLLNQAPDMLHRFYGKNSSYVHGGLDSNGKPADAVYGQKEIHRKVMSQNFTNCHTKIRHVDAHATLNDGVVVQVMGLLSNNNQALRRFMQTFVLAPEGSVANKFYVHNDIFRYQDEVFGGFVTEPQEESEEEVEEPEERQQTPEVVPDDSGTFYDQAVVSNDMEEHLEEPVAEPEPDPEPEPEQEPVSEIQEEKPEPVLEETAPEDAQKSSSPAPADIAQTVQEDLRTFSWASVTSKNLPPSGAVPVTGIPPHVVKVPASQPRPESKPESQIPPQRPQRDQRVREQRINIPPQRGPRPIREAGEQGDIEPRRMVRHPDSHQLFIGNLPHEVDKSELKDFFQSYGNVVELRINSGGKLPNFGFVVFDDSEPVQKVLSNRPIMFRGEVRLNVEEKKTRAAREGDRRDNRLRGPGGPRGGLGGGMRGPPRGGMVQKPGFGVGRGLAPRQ
UniProt P35579: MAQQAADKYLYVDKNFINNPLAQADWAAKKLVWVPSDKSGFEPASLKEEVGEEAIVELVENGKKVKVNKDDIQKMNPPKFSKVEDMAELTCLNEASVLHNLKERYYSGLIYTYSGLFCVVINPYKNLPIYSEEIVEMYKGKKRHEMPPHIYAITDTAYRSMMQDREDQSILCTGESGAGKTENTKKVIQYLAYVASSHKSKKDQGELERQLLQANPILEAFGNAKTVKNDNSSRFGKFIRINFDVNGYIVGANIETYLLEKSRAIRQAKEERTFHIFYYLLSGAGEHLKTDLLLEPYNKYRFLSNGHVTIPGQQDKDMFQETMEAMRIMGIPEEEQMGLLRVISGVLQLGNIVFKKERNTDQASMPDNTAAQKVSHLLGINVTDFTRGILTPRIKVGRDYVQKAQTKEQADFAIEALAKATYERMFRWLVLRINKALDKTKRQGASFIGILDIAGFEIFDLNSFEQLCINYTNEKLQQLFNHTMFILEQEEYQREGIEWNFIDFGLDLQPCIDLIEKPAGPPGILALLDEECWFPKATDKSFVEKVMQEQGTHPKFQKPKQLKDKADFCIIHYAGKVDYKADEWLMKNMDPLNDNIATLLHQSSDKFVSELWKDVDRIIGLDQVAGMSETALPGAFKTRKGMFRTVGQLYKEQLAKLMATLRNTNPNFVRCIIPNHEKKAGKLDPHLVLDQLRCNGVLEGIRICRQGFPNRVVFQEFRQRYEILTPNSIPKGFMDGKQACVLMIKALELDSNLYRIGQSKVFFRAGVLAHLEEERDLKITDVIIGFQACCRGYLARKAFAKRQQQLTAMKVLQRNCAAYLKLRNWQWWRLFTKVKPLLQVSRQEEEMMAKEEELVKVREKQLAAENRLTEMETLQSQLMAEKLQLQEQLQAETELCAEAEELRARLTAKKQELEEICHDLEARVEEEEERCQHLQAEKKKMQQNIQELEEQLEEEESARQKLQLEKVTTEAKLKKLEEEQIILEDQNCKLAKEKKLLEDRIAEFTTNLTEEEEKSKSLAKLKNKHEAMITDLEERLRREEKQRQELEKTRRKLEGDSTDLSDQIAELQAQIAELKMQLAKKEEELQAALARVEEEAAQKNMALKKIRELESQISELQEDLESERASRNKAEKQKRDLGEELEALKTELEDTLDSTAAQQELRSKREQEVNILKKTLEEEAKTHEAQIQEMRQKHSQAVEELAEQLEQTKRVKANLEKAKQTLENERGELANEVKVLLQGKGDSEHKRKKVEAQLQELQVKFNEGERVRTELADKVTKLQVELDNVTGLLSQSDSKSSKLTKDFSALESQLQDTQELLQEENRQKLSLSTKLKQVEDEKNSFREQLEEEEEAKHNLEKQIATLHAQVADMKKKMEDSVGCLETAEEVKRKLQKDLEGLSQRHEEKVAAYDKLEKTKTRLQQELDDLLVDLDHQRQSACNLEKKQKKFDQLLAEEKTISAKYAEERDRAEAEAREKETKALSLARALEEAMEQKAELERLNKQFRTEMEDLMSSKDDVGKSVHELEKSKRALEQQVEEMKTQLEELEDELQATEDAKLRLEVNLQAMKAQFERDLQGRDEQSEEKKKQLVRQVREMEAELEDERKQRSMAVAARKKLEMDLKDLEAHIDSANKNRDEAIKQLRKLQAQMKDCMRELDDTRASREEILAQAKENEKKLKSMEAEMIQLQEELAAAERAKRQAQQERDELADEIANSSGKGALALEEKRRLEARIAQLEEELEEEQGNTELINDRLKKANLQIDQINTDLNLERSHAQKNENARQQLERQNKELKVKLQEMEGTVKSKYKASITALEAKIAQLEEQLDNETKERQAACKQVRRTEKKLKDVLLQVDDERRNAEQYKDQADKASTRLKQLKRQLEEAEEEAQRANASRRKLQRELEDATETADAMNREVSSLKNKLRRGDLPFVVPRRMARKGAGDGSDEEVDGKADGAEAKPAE
UniProt P35580: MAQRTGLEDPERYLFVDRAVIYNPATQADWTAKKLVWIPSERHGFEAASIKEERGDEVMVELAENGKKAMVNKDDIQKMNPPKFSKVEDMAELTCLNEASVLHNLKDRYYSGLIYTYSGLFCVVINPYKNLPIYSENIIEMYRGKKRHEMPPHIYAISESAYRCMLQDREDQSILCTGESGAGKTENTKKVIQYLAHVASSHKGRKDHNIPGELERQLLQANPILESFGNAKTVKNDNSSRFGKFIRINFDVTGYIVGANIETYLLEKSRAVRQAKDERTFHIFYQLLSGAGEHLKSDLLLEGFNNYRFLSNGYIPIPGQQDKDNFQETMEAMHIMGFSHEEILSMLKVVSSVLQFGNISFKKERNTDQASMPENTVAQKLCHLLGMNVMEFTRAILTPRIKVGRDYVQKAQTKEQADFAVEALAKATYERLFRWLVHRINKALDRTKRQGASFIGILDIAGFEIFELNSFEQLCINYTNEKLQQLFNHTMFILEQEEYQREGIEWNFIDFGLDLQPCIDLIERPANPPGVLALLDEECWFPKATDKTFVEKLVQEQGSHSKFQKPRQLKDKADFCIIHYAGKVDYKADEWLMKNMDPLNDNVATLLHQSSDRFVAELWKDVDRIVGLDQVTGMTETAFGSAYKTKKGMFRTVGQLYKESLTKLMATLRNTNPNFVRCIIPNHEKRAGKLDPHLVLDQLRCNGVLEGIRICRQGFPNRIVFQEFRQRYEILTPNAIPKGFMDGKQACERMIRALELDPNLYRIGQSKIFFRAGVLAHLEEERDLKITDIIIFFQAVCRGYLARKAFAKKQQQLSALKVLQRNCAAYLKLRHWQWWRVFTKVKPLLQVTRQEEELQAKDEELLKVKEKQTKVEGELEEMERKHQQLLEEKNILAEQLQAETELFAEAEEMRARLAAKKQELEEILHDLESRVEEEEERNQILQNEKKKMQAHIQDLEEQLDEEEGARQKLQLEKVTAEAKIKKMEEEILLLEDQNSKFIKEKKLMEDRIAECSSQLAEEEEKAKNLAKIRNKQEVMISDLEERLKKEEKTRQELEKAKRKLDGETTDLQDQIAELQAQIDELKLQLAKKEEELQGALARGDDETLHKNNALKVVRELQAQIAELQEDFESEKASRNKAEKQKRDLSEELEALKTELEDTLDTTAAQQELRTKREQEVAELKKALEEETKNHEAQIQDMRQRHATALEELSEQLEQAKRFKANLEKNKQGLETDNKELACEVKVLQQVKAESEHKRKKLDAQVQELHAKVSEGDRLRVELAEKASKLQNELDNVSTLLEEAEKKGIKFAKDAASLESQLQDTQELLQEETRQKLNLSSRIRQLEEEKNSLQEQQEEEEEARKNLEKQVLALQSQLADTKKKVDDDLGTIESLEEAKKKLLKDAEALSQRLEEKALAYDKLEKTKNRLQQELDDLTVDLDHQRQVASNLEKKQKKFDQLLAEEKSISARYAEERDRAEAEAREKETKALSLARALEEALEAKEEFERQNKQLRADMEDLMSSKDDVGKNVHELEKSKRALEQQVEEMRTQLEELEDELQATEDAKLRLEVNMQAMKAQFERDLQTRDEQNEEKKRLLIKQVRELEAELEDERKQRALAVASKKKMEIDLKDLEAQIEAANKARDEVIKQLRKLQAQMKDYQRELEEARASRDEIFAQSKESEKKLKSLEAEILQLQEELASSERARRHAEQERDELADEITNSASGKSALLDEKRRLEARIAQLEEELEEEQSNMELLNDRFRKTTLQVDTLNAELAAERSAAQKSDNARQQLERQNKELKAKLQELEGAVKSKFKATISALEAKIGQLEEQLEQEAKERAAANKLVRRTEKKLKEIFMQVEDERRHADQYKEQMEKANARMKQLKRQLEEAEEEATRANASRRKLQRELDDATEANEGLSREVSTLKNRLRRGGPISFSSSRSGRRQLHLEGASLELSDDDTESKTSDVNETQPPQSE
UniProt P60660: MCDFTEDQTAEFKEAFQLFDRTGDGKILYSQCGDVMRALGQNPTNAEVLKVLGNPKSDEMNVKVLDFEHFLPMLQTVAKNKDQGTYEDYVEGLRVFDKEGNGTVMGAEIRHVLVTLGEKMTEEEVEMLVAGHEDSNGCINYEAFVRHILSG
UniProt O14950: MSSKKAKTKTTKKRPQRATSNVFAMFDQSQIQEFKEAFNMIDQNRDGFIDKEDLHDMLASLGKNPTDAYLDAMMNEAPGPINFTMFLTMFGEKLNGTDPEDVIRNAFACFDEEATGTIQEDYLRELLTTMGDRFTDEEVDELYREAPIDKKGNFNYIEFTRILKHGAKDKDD
UniProt Q13148: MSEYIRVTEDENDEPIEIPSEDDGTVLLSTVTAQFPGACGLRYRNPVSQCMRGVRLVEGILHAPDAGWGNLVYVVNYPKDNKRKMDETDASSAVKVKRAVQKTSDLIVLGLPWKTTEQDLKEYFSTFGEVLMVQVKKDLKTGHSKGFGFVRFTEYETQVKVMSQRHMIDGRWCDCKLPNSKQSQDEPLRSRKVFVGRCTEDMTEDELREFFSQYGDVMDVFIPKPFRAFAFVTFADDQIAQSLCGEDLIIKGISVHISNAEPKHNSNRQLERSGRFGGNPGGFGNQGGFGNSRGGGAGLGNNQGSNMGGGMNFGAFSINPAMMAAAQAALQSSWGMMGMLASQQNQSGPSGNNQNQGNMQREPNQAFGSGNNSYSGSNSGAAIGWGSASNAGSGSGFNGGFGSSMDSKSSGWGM
UniProt P09874: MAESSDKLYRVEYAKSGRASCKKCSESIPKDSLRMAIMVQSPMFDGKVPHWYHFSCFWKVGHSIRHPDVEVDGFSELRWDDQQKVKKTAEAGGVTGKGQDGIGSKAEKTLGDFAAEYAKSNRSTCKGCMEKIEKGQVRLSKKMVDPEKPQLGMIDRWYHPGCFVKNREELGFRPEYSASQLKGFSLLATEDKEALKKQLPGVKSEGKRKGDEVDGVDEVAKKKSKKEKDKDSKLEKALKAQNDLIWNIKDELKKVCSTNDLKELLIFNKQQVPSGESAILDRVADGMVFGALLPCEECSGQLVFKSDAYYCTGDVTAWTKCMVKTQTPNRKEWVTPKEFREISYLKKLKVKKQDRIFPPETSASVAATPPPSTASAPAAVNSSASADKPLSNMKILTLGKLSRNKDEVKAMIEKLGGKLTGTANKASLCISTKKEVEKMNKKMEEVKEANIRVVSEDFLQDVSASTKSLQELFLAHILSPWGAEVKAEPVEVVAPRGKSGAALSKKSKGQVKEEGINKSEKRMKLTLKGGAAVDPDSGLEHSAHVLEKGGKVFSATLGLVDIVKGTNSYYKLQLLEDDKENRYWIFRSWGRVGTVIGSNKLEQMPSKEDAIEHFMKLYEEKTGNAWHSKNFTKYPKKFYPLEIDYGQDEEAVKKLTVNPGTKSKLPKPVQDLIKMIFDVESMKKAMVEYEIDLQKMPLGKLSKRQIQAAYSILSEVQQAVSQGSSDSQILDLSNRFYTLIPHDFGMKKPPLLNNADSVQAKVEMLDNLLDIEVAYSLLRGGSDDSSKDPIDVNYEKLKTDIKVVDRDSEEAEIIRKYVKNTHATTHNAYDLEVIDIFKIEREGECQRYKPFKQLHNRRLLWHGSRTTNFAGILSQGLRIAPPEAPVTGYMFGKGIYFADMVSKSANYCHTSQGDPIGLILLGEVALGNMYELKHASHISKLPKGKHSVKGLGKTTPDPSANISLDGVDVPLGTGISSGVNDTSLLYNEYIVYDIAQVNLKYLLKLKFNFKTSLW

binding [1]	binding [2]	Substance
binds	binds	MYH9 (from UniProt P35579 1-1960)
binds	binds	MYH10 (from UniProt P35580 1-1976)
binds	binds	MYL6 (from UniProt P60660 1-151)
binds	binds	MYL12B (from UniProt O14950 1-172)
–	binds	TDP-43 (from UniProt Q13148 1-414)
binds	binds	VCP (from UniProt P55072 1-806)
binds	binds	poly(ADP-ribose) polymerase 1 (from UniProt P09874 1-1014)

Reference: PMC10682001
